PMC7819943, “Rice protein-binding microarrays: a tool to detect cis-acting elements near promoter regions in rice”
The other results are listed elsewhere or left out.

By UniProt entry, the sequences of proteins in these tests, tags left out.
UniProt Q0JBA9, entry or part of it: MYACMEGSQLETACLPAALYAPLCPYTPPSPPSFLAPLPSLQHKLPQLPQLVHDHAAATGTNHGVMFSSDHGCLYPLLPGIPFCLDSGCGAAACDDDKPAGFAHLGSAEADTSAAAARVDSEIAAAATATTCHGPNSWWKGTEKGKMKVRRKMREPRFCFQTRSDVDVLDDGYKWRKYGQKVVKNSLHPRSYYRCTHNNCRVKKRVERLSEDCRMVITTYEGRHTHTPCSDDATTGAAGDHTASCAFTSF

molecular target: OsWRKY34 (Oryza sativa, UniProt Q0JBA9 1-250); assay: protein-binding microarray (RPBM); PBS, 2% BSA, 51.3 ng/ul salmon testes DNA, 50 uM zinc acetate, 200 nM TF, 25 C, 1 h; high values mean tight binding; settings: protein: recombinant; tags: N-terminal polyhistidine and DsRed monomer fusion (pET32a); label: CyDye5-dUTP incorporated in the synthesized complementary strand; 3' TTTTT single-stranded linker to array surface; dsDNA, one strand shown
Outline: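 Polyhistidine-tagged DsRed fusions of transcription factors, joined at the N-terminus, were expressed in E. coli BL21-CodonPlus and isolated on Ni–NTA. They were incubated at 200 nM for 1 h at 25 °C on a custom Agilent array, double-stranded and BSA-blocked, in PBS with 2% BSA, salmon testes DNA and 50 µM zinc acetate. The binding signal is per-feature fluorescence intensity (arbitrary units) read on an Axon 4000B scanner after washing.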

Question: “CACTCTCTCCGGAAGGCCCAAACCGCAGCTCAACGCTTCTCGGAGTCACCTAGTGCAG” was tested. Which binding signal did it give?
Answer: Its binding signal is 8670 fluorescence intensity (a.u.).

Question: “GCACCCCTGTTTTCTCAGCGATCATGGCTGTAATACTGAACGGAGTCACCTAGTGCAG” was tested. Which binding signal did it give?
Answer: The binding signal was 8070 fluorescence intensity (a.u.).

Question: How did the binding signal turn out when “GTGTTTGCCTATGATTTTTGTAGCTACCATGACTGAAAAACGGAGTCACCTAGTGCAG” was run?
Answer: Its binding signal is 8970 fluorescence intensity (a.u.).

Question: Which binding signal does the source give for “GCGCCGTTGTTCTTCCTGCCACATCCATCCTGGTGAGCACCGGAGTCACCTAGTGCAG” here?
Answer: The binding signal was 12700 fluorescence intensity (a.u.).

Question: “CGAGGGAGAGGTGCGGTGGGGCGTAATTAGGCGGAGAGATCGGAGTCACCTAGTGCAG” was tested. Which binding signal did it give?
Answer: The binding signal was 9460 fluorescence intensity (a.u.).

Question: With “ATTGTATACTGCTGAGTTGTTTTATCACTGTATTTATTGCCGGAGTCACCTAGTGCAG” as the sequence, how does the binding signal read?
Answer: Its binding signal is 11300 fluorescence intensity (a.u.).

Question: With “CTCAAGTATATCCTTTCTTTAACTTTATTAGGTTGAACTTCGGAGTCACCTAGTGCAG” as the sequence, how does the binding signal read?
Answer: Its binding signal is 8250 fluorescence intensity (a.u.).

Question: “TCCATATGCCACCACTCAGCTCCTGATTCCCCGAATTATACGGAGTCACCTAGTGCAG” was tested. Which binding signal did it give?
Answer: The binding signal was 8740 fluorescence intensity (a.u.).

Question: With “AGGTACAGTCGGGGCGGGTGCAGGGGTACCAACTCGGAGTCGGAGTCACCTAGTGCAG” as the sequence, how does the binding signal read?
Answer: The binding signal was 13900 fluorescence intensity (a.u.).

Question: How did the binding signal turn out when “CTTATCCCAATTTTAAGCTTCTCCAGACTTTGGGCGCGCTCGGAGTCACCTAGTGCAG” was run?
Answer: The binding signal was 8540 fluorescence intensity (a.u.).

Question: With “GCTCGCTGGCCGGTTCACCCACATCCTCAGCCGTCCATCACGGAGTCACCTAGTGCAG” as the sequence, how does the binding signal read?
Answer: Its binding signal is 9860 fluorescence intensity (a.u.).

Question: With “TCGGAGACCACCTCCACCTCCACCTCCTCCACCACCTTCGCGGAGTCACCTAGTGCAG” as the sequence, how does the binding signal read?
Answer: The binding signal was 8190 fluorescence intensity (a.u.).

Question: Which binding signal does the source give for “CCTATGCTTCCGCCGCATTCTGGTGAGCATCCTTACGCAACGGAGTCACCTAGTGCAG” here?
Answer: Its binding signal is 8620 fluorescence intensity (a.u.).

Question: With “CTTCCCTTCCCACCGCTGCAACCCACCATTATTCTCCTCCCGGAGTCACCTAGTGCAG” as the sequence, how does the binding signal read?
Answer: The binding signal was 8570 fluorescence intensity (a.u.).

Question: With “AATGATGGGAGGCTATATCAACTGTCAAACTGGCTAATTTCGGAGTCACCTAGTGCAG” as the sequence, how does the binding signal read?
Answer: Its binding signal is 9220 fluorescence intensity (a.u.).

Question: Which binding signal does the source give for “ATTTTCGCAGCCTCGCTCCACGCCGTTCCGTTTCCTCATCCGGAGTCACCTAGTGCAG” here?
Answer: The binding signal was 9540 fluorescence intensity (a.u.).

Question: Which binding signal does the source give for “ACAATTTTTTTTTCCAAAACCTTAGACACGTGTATCTGTCCGGAGTCACCTAGTGCAG” here?
Answer: Its binding signal is 10200 fluorescence intensity (a.u.).

Question: How did the binding signal turn out when “AATTTCGCCTGCACCCACACCTGATACCACACCACCACTCCGGAGTCACCTAGTGCAG” was run?
Answer: The binding signal was 8040 fluorescence intensity (a.u.).

Question: How did the binding signal turn out when “GTCGCCTCATCGCTTGTTCTTGCTGTAATTTTGTTCTTGACGGAGTCACCTAGTGCAG” was run?
Answer: Its binding signal is 14400 fluorescence intensity (a.u.).

Question: With “TTTCACCTTGTAGTCTAACCACTAATTTTTTTTGAACGACCGGAGTCACCTAGTGCAG” as the sequence, how does the binding signal read?
Answer: Its binding signal is 8270 fluorescence intensity (a.u.).

Question: With “AGGATGATGAGTTGTTCCATTTCCTGTAGTATCCCTGTTTCGGAGTCACCTAGTGCAG” as the sequence, how does the binding signal read?
Answer: The binding signal was 8560 fluorescence intensity (a.u.).

Question: How did the binding signal turn out when “TGCTGCACCCTCAACGTTCCGGTAATCCTATTGGCGCACACGGAGTCACCTAGTGCAG” was run?
Answer: The binding signal was 8470 fluorescence intensity (a.u.).

Question: For “GGTTTCTTTTCTCCTTTGACCTTTTCGATTGAGAGAGCTCCGGAGTCACCTAGTGCAG”, which binding signal is on record?
Answer: The binding signal was 9040 fluorescence intensity (a.u.).

Question: With “GCGGCGTGTGTGGTTTGGTTTGGGATAAAGCGGCCGTGGCCGGAGTCACCTAGTGCAG” as the sequence, how does the binding signal read?
Answer: Its binding signal is 8810 fluorescence intensity (a.u.).

Question: “GACTCGGTCTTCATCTGACGTAACGCTTACGTGGCAATTCCGGAGTCACCTAGTGCAG” was tested. Which binding signal did it give?
Answer: Its binding signal is 8820 fluorescence intensity (a.u.).

Question: With “CTATGGCGGTCACCTTGTATGGCCTTCCAAGGTAGTATTTCGGAGTCACCTAGTGCAG” as the sequence, how does the binding signal read?
Answer: The binding signal was 8270 fluorescence intensity (a.u.).

Question: How did the binding signal turn out when “AACAGTGAGCATTGTGCGTGCGAAAACCTGACGTCTTCTGCGGAGTCACCTAGTGCAG” was run?
Answer: The binding signal was 8410 fluorescence intensity (a.u.).

Question: With “GTATTACGTTGTCATTCCTTTTTGCCATTGGTTTTCATCGCGGAGTCACCTAGTGCAG” as the sequence, how does the binding signal read?
Answer: The binding signal was 8660 fluorescence intensity (a.u.).

Question: “TTGACTTTTTAAAATATGTTTGACCGTTCGTCTTATTCAACGGAGTCACCTAGTGCAG” was tested. Which binding signal did it give?
Answer: Its binding signal is 8040 fluorescence intensity (a.u.).

Question: “ACTCGCTCGCTCGCTCGCCTCGCGCACCCGCACCGCCCGCCGGAGTCACCTAGTGCAG” was tested. Which binding signal did it give?
Answer: The binding signal was 9260 fluorescence intensity (a.u.).

Question: “GGAATTAGGGTTGGGTCCGTGTCGGGCTCGGGACTCCTGCCGGAGTCACCTAGTGCAG” was tested. Which binding signal did it give?
Answer: The binding signal was 8280 fluorescence intensity (a.u.).

Question: With “TCCGGTCTCTACATTCAACTGAATATATGCAACCTTAAAACGGAGTCACCTAGTGCAG” as the sequence, how does the binding signal read?
Answer: The binding signal was 8680 fluorescence intensity (a.u.).

Question: With “TTTATTCACATACTACTTTTCGTTTGCAAATATGCCATTTCGGAGTCACCTAGTGCAG” as the sequence, how does the binding signal read?
Answer: Its binding signal is 10800 fluorescence intensity (a.u.).

Question: How did the binding signal turn out when “AACTTCTAACTTTTCCATCACATCATTTCAATTTCAACCACGGAGTCACCTAGTGCAG” was run?
Answer: The binding signal was 8650 fluorescence intensity (a.u.).

Question: How did the binding signal turn out when “ATTGCTTGTTCTCCTTGTCTGATGAACAAAGTAATTGCTACGGAGTCACCTAGTGCAG” was run?
Answer: The binding signal was 9380 fluorescence intensity (a.u.).

Question: “GTCTGCTTTAAGTATATACTTTCTCCGTTTCACAATGTAACGGAGTCACCTAGTGCAG” was tested. Which binding signal did it give?
Answer: Its binding signal is 10400 fluorescence intensity (a.u.).

Question: “ACAAAACAGAGTCAAAATCACCGAGGGATCAGTTTGCACTCGGAGTCACCTAGTGCAG” was tested. Which binding signal did it give?
Answer: Its binding signal is 8230 fluorescence intensity (a.u.).

Question: “AACTCTATTTGTCCTTTCTTATCCGGAACTCGTTCTATATCGGAGTCACCTAGTGCAG” was tested. Which binding signal did it give?
Answer: The binding signal was 8660 fluorescence intensity (a.u.).

Question: Which binding signal does the source give for “TGGATTAGTAGCTTTTTCTTTTCTTTATTTTTTTAAAAAACGGAGTCACCTAGTGCAG” here?
Answer: The binding signal was 9710 fluorescence intensity (a.u.).

Question: “TTTGTGCGGCTGCTTTTCCATTTCCGCCCACATCGCCTTCCGGAGTCACCTAGTGCAG” was tested. Which binding signal did it give?
Answer: Its binding signal is 8140 fluorescence intensity (a.u.).

Question: How did the binding signal turn out when “ATCTTACCCTTTTTTCCCTGCATTTCAGCATTGCAGCACTCGGAGTCACCTAGTGCAG” was run?
Answer: The binding signal was 13200 fluorescence intensity (a.u.).

Question: Which binding signal does the source give for “ATCGCTCTCTTTTTCTCGGTTGTTTTGGATTTGTAGCATCCGGAGTCACCTAGTGCAG” here?
Answer: The binding signal was 11400 fluorescence intensity (a.u.).

Question: How did the binding signal turn out when “CGCGCGCCCTCGCCACTCGCGAGCTTCTACTGCTGTCTCTCGGAGTCACCTAGTGCAG” was run?
Answer: Its binding signal is 11400 fluorescence intensity (a.u.).

Question: For “CGTTATTATTGTCTTTCGCATGATCGTATCCGCACGTATGCGGAGTCACCTAGTGCAG”, which binding signal is on record?
Answer: Its binding signal is 10900 fluorescence intensity (a.u.).

Question: For “CTATTCTTGTCGTTACTCCTCCCTCCACTTTCTCGCGGTCCGGAGTCACCTAGTGCAG”, which binding signal is on record?
Answer: The binding signal was 9190 fluorescence intensity (a.u.).

Question: With “TTTTGGATGGTGGTTTCGCTAACATGGCGTCTACGTGGCACGGAGTCACCTAGTGCAG” as the sequence, how does the binding signal read?
Answer: The binding signal was 8310 fluorescence intensity (a.u.).

Question: For “TTCGCGTTGCCGCGTTCGTCTCCTTGGCATCTGATCCTATCGGAGTCACCTAGTGCAG”, which binding signal is on record?
Answer: Its binding signal is 8240 fluorescence intensity (a.u.).

Question: For “GCAAGAAGGGAAGGGAAGGGGACTAGGGGAGGGCGAGATGCGGAGTCACCTAGTGCAG”, which binding signal is on record?
Answer: The binding signal was 8040 fluorescence intensity (a.u.).

Question: Which binding signal does the source give for “GGCAGGGAGGGAGGGCGGCGGTACGGGCGGCGGCGCGCACCGGAGTCACCTAGTGCAG” here?
Answer: Its binding signal is 14800 fluorescence intensity (a.u.).

Question: “CCACCCATCCGGCCGTAACCCGCTGTCCACCATAATCCTGCGGAGTCACCTAGTGCAG” was tested. Which binding signal did it give?
Answer: Its binding signal is 8980 fluorescence intensity (a.u.).

Question: With “TCCCCACCTCCACTCCCTTCCTCATTGCACACACGAGAAACGGAGTCACCTAGTGCAG” as the sequence, how does the binding signal read?
Answer: The binding signal was 10700 fluorescence intensity (a.u.).

Question: Which binding signal does the source give for “CTTATCCGGAATTCCCTCCATACCCGAGGTCGGATTCCGTCGGAGTCACCTAGTGCAG” here?
Answer: Its binding signal is 8500 fluorescence intensity (a.u.).

Question: “TGGACTTGGAGTTGTAATAGGTGGTAGGGGTGGAGATAAACGGAGTCACCTAGTGCAG” was tested. Which binding signal did it give?
Answer: The binding signal was 8570 fluorescence intensity (a.u.).

Question: How did the binding signal turn out when “AGCTGAGCTGCGAGCTCTCTCTCTCTTTCTCTCGGCAGCTCGGAGTCACCTAGTGCAG” was run?
Answer: The binding signal was 8580 fluorescence intensity (a.u.).
